Patent US20170192014A1 (PDL BIOPHARMA, published 2017)
These are yes or no findings as the source states them, for the method shown. Some entries that bind do so weakly or less than the wild type.

Biological target: T1, caspase-3-cleaved (treated) CK-18 (Homo sapiens (Human)) (UniProt P05783)
T1 sequence: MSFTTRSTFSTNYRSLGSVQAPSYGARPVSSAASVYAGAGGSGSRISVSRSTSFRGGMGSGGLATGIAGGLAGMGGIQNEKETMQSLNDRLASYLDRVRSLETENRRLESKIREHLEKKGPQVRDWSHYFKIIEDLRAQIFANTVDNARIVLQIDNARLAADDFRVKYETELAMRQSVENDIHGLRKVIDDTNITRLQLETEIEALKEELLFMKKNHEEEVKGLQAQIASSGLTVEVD
Assay: sandwich ECL assay, capture biotin-3C2 on streptavidin beads, detector TAG-C-04, 150 ng/mL in normal human serum

B1: monoclonal antibody 3C2 (antibody, V domains shown)
VH: DVQLVESGGGLVQPGGSRKLSCAASGFTFSSFGMHWVRQAPEKGLEWVAYINGGSTIIYYADTVKGRFTVSRDNPKNTLFLQMTSLRSDDTAMYFCVRRTPTAAGGAMDYWGQGTSVTVSS
VL: NIMVTQSPSSLAVSAGEKVTMTCKSSQSLFYSSNQKNYLAWFQQKPGQSPKLLIYWASTRESGVADRFTGSGYGTDFTLTISSVQAEDLAVYYCQQYLSSWTFGGGTKVEIK
notes: Mouse hybridoma monoclonal antibody, detected with goat anti-mouse IgG; also called mAb 3C2; anti-VEVD mAb
binding: binds
